Data taken from patent US8529872B2, “Seeds and markers for use in imaging” (Board of Regents, The University of Texas System, priority 2007, dated 2013).

Assay: MRI of capsules/hollow contrast markers filled with contrast agent
Settings: for contrast in MRI: 1.5-T MRI

(CoCl2)0.8(C2H5NO2)0.2
MRI visualization in acrylic and glass hollow contrast markers (2-5 μL aqueous solution (10-1 wt. %), phantom, 1.5-T MRI (T1)): well visualized

(CoCl2)0.9(C2H5NO2)0.1
MRI visualization in glass and polymer capsules (aqua solution 0.3-10%, 1.5 T, 3 T, and 7 T MRI, quantities as low as 0.3 μL): well visulalized

(CoCl2)n(C2H5NO2)1-n [Example C4]
contrast in MRI: positive contrast

L-PG-Bz-DTPA-Gd
contrast in MRI: positive contrast
